Consider one sequence from patent US20050153366, “Protein-protein interaction antagonist screening libraries based upon 1,4-disubstituted naphthalenes and related scaffolds” (published 2005).

For at least one entry, the source does not settle the construct or the ends of the probe.

This data set has as its system HOXA1 (residues 192-288)/PBX1 (residues 233-319) complex. Nature of the data set: EMSA. To be noted: ternary complex formed; 10 mM HEPES pH 7.9, 1 mM EDTA, 135 mM NaCl, poly dIdC, about 22 C; disrupted by small molecules (compound 31 IC50 65 uM, compound 15 IC50 173 uM); purified recombinant protein; label: 32P (Klenow fill-in with alpha-32P-dCTP). (A gel shift assay detects complexes by their altered migration in electrophoresis.)

With “CTCTCCTTTTGATTGATTAA / AGAGCTTAATCAATCAAAAGG [HOXPBX-CT probe]”, the binding result is “binds”.
